Measurements taken from patent US20250194601A1, “PYRIDAZINONE COMPOUND OR SALT THEREOF AND PEST CONTROL AGENT CONTAINING IT” (ISHIHARA SANGYO KAISHA, LTD., priority 2022, published 2025).
Some entries share one result that the patent states for a list of compounds.

Columns and labels:
Format in all cases: in vivo
[1] = system: brown planthopper (Nilaparvata luqens); conditions: 50 ppm, second to third instar nymphs, 5th day after release
From the text: Test on effect against brown planthopper (Nilaparvata luqens) Rice seedlings were dipped in a chemical solution of a test compound at a concentration of 200 ppm or 50 ppm. After the chemical solution dried in air, the root was wrapped with wet adsorbent cotton, and the seedlings were put into a test tube. About 10 second to third instar nymphs of brown planthopper were released, the test tube was covered with a gauze, and the test tube was left in a constant temperature chamber with lighting at 25° C. On the 5th day after release, the number of dead nymphs was counted, and the mortality (%) was calculated by the following formula.
Mortality (%)=[(number of dead nymphs)/(number of released nymphs)]×100

[2] = system: green peach aphid (Myzus persicae); conditions: 50 ppm, nymphs, 5th day after the application
From the text: Test on effect against green peach aphid (Myzus persicae)
A Japanese radish leaf was inserted in a test tube in which water was put, and 5 adults of green peach aphid were released on the leaf. On the next day, the adults were removed, and the number of nymphs parasitic on the leaf was counted as the number of tested nymphs, and then the leaf was dipped in a chemical solution of a test compound at a concentration of 200 ppm or 50 ppm. After the chemical solution dried in air, the leaf was left in a constant temperature chamber with lighting at 25° C. On the 5th day after the application, the number of dead nymphs was counted, and the mortality (%) was calculated by the following formula. Nymphs that dropped from the leaf or nymphs that were moribund were counted as dead nymphs.
Mortality (%)=[(Number of dead nymphs)/(number of tested nymphs)]x100

[3] = system: two-spotted spider mite (Tetranychus urticae); experiment: Test Example 3: effects against two-spotted spider mite, kidney bean leaf dip; conditions: 50 ppm, adults, 3rd day after the application
How it was run: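 Kidney bean leaves carrying about 20 adult mites dipped in test solution at 800, 200 or 50 ppm, air-dried, kept lit at 25° C. Dead adults, including dropped or moribund ones, counted on day 3 to give mortality (%).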

Row | Compound | mortality [1] | mortality [2] | mortality [3]
1 | CCc1nn(-c2ccc(C(F)(F)F)cc2C2CC2)c(=O)c(-n2ccc(C(F)(F)F)n2)c1O [2-39] | ≥ 90% | ≥ 90% | 
2 | CCc1nn(-c2c(C)cc(SC(F)(F)F)cc2C)c(=O)c(-n2ccc(Cl)n2)c1O [2-189] | ≥ 90% | ≥ 90% | 
3 | CCc1nn(-c2c(C)cc(OC(F)(F)F)cc2Br)c(=O)c(-n2cc(F)cn2)c1O [2-281] | ≥ 90% | ≥ 90% | ≥ 80%
4 | CCc1nn(-c2c(C)cc(C(F)(F)F)cc2C)c(=O)c(-n2cc(Br)c(Cl)n2)c1O [2-412] | ≥ 90% | ≥ 90% | 
5 | Cc1cc(C(F)(F)F)cc(C)c1-n1nc(C2CC2)c(O)c(-n2ccc(C(F)(F)F)n2)c1=O [2-440] | ≥ 90% | ≥ 90% | 
6 | CCc1nn(-c2c(Br)cc(S(C)(=O)=O)cc2Br)c(=O)c(-n2ccc(Cl)n2)c1O [2-499] | ≥ 90% | ≥ 90% | 
7 | Cc1cc(C(F)(F)F)cc(C)c1-n1nc(C(C)(C)C)c(O)c(-n2ccc(C(F)(F)F)n2)c1=O [2-535] | ≥ 90% | ≥ 90% | 
8 | Cc1cc(C(F)(F)F)cc(C)c1-n1nc(C(C)(C)C)c(O)c(-n2cc(Cl)cn2)c1=O [2-538] | ≥ 90% | ≥ 90% | 
9 | C=Cc1cc(C(F)(F)F)cc(C)c1-n1nc(CC)c(O)c(-n2cnc(Cl)n2)c1=O [6-40] | ≥ 90% | ≥ 90% | 
10 | CCc1nn(-c2c(C)cc(SC(F)(F)F)cc2C)c(=O)c(-n2cnc(Cl)n2)c1O [6-98] | ≥ 90% | ≥ 90% | 
11 | CCc1nn(-c2c(Cl)cc(C(F)(F)F)cc2Cl)c(=O)c(-n2cnc(C)n2)c1O [6-122] | ≥ 90% | ≥ 90% | 
12 | O=c1c(-n2cnc(Cl)n2)c(O)c(C2CC2)nn1-c1c(Br)cc(C(F)(F)F)cc1Br [6-126] | ≥ 90% | ≥ 90% | 
